Several values for one entry are separate records, joined by “and”; a condition that tells them apart may be missing. Identical values can stand only once. This is one part of the list. Shown are side measurements of this screen, not its main read-out; they come without a call. Most of these compounds were active or inconclusive in the main read-out, so they are no random draw. The note in brackets gives the kind of curve behind each potency; many fits are weak.
Assay: IkB Signaling
Conditions: ABC-DLBCL IkBa-CBG/CBR dual luciferase ratio (green luciferase fused to IkBa over red control in OCI-Ly3 lymphoma cells), 4 h; measured here: control luc red channel unless noted
Outline: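 Curves were fitted separately to fusion (green), unfused (red) and ratio luminescence, then classed by r2, magnitude and activity. Cells: OCI-Ly3, 4 h compound plus doxycycline at 37C; 10 uM MG-132 defined full response.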

Q: For Cc1cc(C)c(C#N)c(SCC(=O)Nc2ccccc2C#N)n1, which AC50 is on record?
A: 15.8 µM [falling, partial curve]

Q: Which AC50 does the source give for CCS(=O)(=O)c1ncc(Cl)c(C(=O)N(Cc2ccccc2)Cc2ccco2)n1 here?
A: 5.01 µM [falling, partial curve]

Q: For CCn1cc(C(=O)NCCc2ccc(OC)c(OC)c2)c(=O)c2cc(S(=O)(=O)N3CCc4ccccc4C3)ccc21, which AC50 is on record?
A: 1.26 µM [rising, full curve]

Q: With COc1cccc(CNC(=O)CSc2ncc(S(=O)(=O)c3ccc(C)c(Cl)c3)c(=O)[nH]2)c1 as the molecule, how does the AC50 read?
A: 1.26 µM [falling, partial curve]

Q: With N#Cc1ccccc1CSc1nnc(-c2ccccc2)o1 as the molecule, how does the AC50 read?
A: 0.126 µM [rising, full curve]

Q: With COc1ccc(N2CCN(C(CNS(=O)(=O)c3c(C)cc(C)cc3C)c3ccco3)CC2)cc1 (stereo unspecified) as the molecule, how does the AC50 read?
A: 39.8 µM [falling, single point]

Q: For Cc1ccn2c(Nc3ccc4c(c3)OCO4)c(-c3ccco3)nc2c1, which AC50 is on record?
A: 39.8 µM [falling, single point]

Q: For CCc1cccc(C)c1NC(=O)Nc1csc2c1CCCC2, which AC50 is on record?
A: 3.16 µM [rising, single point]

Q: For COc1ccc2sc(N(Cc3cccnc3)C(=O)c3ccco3)nc2c1, which AC50 is on record?
A: 2.51 µM [rising, single point]

Q: For Cc1ccc(C)c(NC(=O)CSc2nncn3c2cc2sccc23)c1, which AC50 is on record?
A: 12.6 µM [falling, partial curve]

Q: With O=C1CN(C(=O)c2ccccc2)C(c2ccc(F)cc2)c2cc(Br)ccc2N1 (stereo unspecified) as the molecule, how does the AC50 read?
A: 3.16 µM [falling, partial curve]

Q: Which AC50 does the source give for COc1ccc(CN2C(=O)N(c3ccc(F)cc3)C(=O)C2CC(=O)Nc2ccccc2)cc1 (stereo unspecified) here?
A: 0.501 µM [rising, partial curve]

Q: Which AC50 does the source give for CCOc1ccc(N2CC(c3nc4ccccc4n3CCC3CCCCC3)CC2=O)cc1 (stereo unspecified) here?
A: 31.6 µM [falling, single point]

Q: Which AC50 does the source give for CCCNC(=O)C1CCN(c2cc(C)nc3c(-c4ccc(OC)c(OC)c4)c(C)nn23)CC1 here?
A: 12.6 µM [falling, partial curve]

Q: With Cc1ccc(CCNc2nc3ccccc3c3nc(-c4ccccc4)nn23)cc1 as the molecule, how does the AC50 read?
A: 15.8 µM [falling, partial curve]

Q: Which AC50 does the source give for COC(=O)c1cc(NC(=O)Cn2ncc3c2-c2ccccc2OC3)cc(C(=O)OC)c1 here?
A: 39.8 µM [falling, single point]

Q: Which AC50 does the source give for Cc1cccc(CS(=O)(=O)CC2Nc3ccc(C(=O)NCc4ccccc4Cl)cc3NC2=O)c1 (stereo unspecified) here?
A: 15.8 µM [falling, partial curve]

Q: For O=C(CSc1nc2ccccc2[nH]1)c1ccc2c(c1)OCO2, which AC50 is on record?
A: 12.6 µM [falling, partial curve]

Q: Which AC50 does the source give for COC(=O)c1ccc(CSc2nnc3n(Cc4ccccc4OC)c(=O)c4ccccc4n23)o1 here?
A: 39.8 µM [rising, single point] [measured here: IkB-luc green channel]

Q: Which AC50 does the source give for COc1cccc(C(=O)Nc2ccc3c(c2)CCCN3C(=O)c2cccs2)c1OC here?
A: 31.6 µM [falling, single point]

Q: For CCc1ccc(-n2c(=O)c3cccnc3n2CC(=O)N(CC)c2cccc(C)c2)cc1, which AC50 is on record?
A: 39.8 µM [falling, single point]

Q: For CCOc1ccc(Nc2c(S(=O)(=O)c3ccc(C)cc3)cnc3ccccc23)cc1, which AC50 is on record?
A: 0.2 µM [falling, full curve]

Q: With CN1C(=O)CSc2ccc(NC(=O)Nc3ccccn3)cc21 as the molecule, how does the AC50 read?
A: 12.6 µM [falling, partial curve]

Q: With COc1cccc(Cn2c(SCc3ccc(C(=O)N4CCC(C)CC4)cc3)nc3ccncc32)c1 as the molecule, how does the AC50 read?
A: 20 µM [falling, single point]

Q: Which AC50 does the source give for CCCCCCCC[N+](CCCCCCCC)(CCCCCCCC)CCCCCCCC here?
A: 1.58 µM [falling, full curve]

Q: For COc1cc(NC(=O)CCCSc2nc(-c3ccco3)cc(C(F)(F)F)n2)cc(OC)c1OC, which AC50 is on record?
A: 25.1 µM [falling, single point]

Q: For CC(C)(C)OC(=O)N1CCC(c2c(C(=O)NCCN3CCOCC3)cnn2-c2ccccc2)CC1, which AC50 is on record?
A: 12.6 µM [falling, single point]

Q: For CCOc1ccccc1N(CC(=O)NC1CCCC1)C(=O)CCC(=O)Nc1cc(C)on1, which AC50 is on record?
A: 7.94 µM [falling, full curve, poor fit]

Q: For CCOC(=O)c1c(Nc2ccccc2)nnc(-c2ccccc2)c1-c1ccccc1, which AC50 is on record?
A: 12.6 µM [falling, partial curve]

Q: Which AC50 does the source give for COc1ccccc1NC(=O)Oc1ccc(NC(=O)c2ccco2)cc1 here?
A: 12.6 µM [falling, partial curve]

Q: Which AC50 does the source give for COC(=O)CNC(c1ccccc1)c1cc(Br)ccc1NC(=O)c1cc(OC)c(OC)c(OC)c1 (stereo unspecified) here?
A: 5.01 µM [falling, partial curve]

Q: With CNC(=O)c1ccc(NC(=O)c2nsc3ccccc23)cc1 as the molecule, how does the AC50 read?
A: 0.0501 µM [falling, full curve]

Q: For Cc1ccc(-c2csc(=Nc3ccccc3)n2CCCO)cc1, which AC50 is on record?
A: 25.1 µM [falling, single point]

Q: With COc1ccc2c(c1)c(N1CCCC1=O)c(C(=O)Nc1ccc(Cl)cc1C)n2C as the molecule, how does the AC50 read?
A: 25.1 µM [falling, partial curve]

Q: With CCN1Cc2cccc(C(=O)Nc3ccc(F)cc3)c2C1=O as the molecule, how does the AC50 read?
A: 0.0631 µM [rising, full curve]

Q: For COC(=O)c1c(NC(=O)c2ccc(S(=O)(=O)N3CCCCC3)cc2)sc2c1CCN(C)C2, which AC50 is on record?
A: 39.8 µM [falling, single point]

Q: For Cc1ccc(-n2c(SCc3nc(-c4ccccc4C)no3)nnc2-c2ccncc2)cc1C, which AC50 is on record?
A: 25.1 µM [falling, partial curve]

Q: With CCn1cc2nc(SCc3cccc(C(F)(F)F)c3)n(CCc3ccccc3)c(=O)c2n1 as the molecule, how does the AC50 read?
A: 39.8 µM [falling, single point]

Q: For COc1ccc(-c2cc(C)no2)cc1S(=O)(=O)Nc1cccc(C(F)(F)F)c1, which AC50 is on record?
A: 20 µM [falling, partial curve]

Q: With Cc1c(CCNC(=O)c2ccc(C(F)(F)F)cc2)sc2nc(-c3ccc(F)cc3)nn12 as the molecule, how does the AC50 read?
A: 3.16 µM [falling, partial curve]

Q: Which AC50 does the source give for O=C1OC(=O)[C@@H]2[C@@H]1[C@@H]1CC[C@H]2O1 here?
A: 25.1 µM [rising, partial curve] [measured here: IkB-luc green channel] and 5.01 µM [rising, partial curve] [measured here: IkB-luc green channel]

Q: For CC(=O)c1cc(-c2ccccc2)n(CC(=O)NC2CCCCCC2)c1C, which AC50 is on record?
A: 1.26 µM [rising, full curve, poor fit]

Q: With O=C(Nc1cccc(C(F)(F)F)c1)c1noc2c1CCc1ccccc1-2 as the molecule, how does the AC50 read?
A: 31.6 µM [falling, single point]

Q: For O=C(NCCc1ccc(Cl)cc1)c1cccn1-c1nnc(N2CCCCC2)s1, which AC50 is on record?
A: 25.1 µM [falling, partial curve]

Q: For Cc1cc(O)c(C(c2cccc(F)c2)N2CCC(C)CC2)c(=O)n1Cc1ccco1 (stereo unspecified), which AC50 is on record?
A: 0.1 µM [falling, full curve, poor fit]

Q: Which AC50 does the source give for COc1ccc(N2CCN(C(=O)CSCc3nc(-c4ccccc4Cl)oc3C)CC2)cc1 here?
A: 31.6 µM [falling, partial curve]

Q: Which AC50 does the source give for Cc1cccc(NC(=O)CSc2nc3c(c(=O)[nH]2)CN(Cc2ccc4c(c2)OCO4)CC3)c1C here?
A: 39.8 µM [falling, single point]

Q: With COc1cc2c(cc1NC(=O)CC1SC(N3CCCC3)=NC1=O)oc1ccccc12 (stereo unspecified) as the molecule, how does the AC50 read?
A: 31.6 µM [falling, single point]

Q: For O=C(NCc1cccc(F)c1)c1ccc(CS(=O)c2ccccc2Cl)o1 (stereo unspecified), which AC50 is on record?
A: 20 µM [falling, single point]

Q: With CCOC(=O)N1CCc2c(sc3c2c(=O)n(Cc2ccccc2)c(=O)n3CC(=O)Nc2c(C)cccc2C)C1 as the molecule, how does the AC50 read?
A: 15.8 µM [falling, partial curve]

Q: With c1ccc(CSc2ncn(-c3ccccc3)n2)cc1 as the molecule, how does the AC50 read?
A: 15.8 µM [falling, partial curve]

Q: For COc1cccc(-c2cc(C(F)(F)F)nc(-n3nc(C)c(Br)c3C)n2)c1, which AC50 is on record?
A: 2 µM [falling, full curve]

Q: With Nc1nc(N)c(S(=O)(=O)c2ccccc2)c(Nc2ccc(Br)cc2)n1 as the molecule, how does the AC50 read?
A: 25.1 µM [falling, single point]

Q: Which AC50 does the source give for c1cc2c(cc1Nc1nc(-c3ccc4c(c3)OCO4)cs1)OCCO2 here?
A: 31.6 µM [falling, single point]

Q: Which AC50 does the source give for O=C(CSc1ccc2nc(-c3ccccc3)cn2n1)Nc1ccccc1C(F)(F)F here?
A: 7.94 µM [rising, partial curve]

Q: Which AC50 does the source give for Cc1cccc(NC(=O)C(=O)c2cc(C)n(-c3ccccc3)c2C)c1C here?
A: 39.8 µM [falling, single point]

Q: For O=C(Nc1cccc(-c2nc3ncccc3o2)c1)c1ccc(-c2cccc(Cl)c2Cl)o1, which AC50 is on record?
A: 3.98 µM [falling, partial curve]

Q: For COC(=O)c1c(SCC(=O)Nc2cccc(C(F)(F)F)c2)[nH]c2ccccc2c1=O, which AC50 is on record?
A: 10 µM [falling, partial curve]

Q: Which AC50 does the source give for Cc1nn(-c2ccccc2)c2c1C1(C(=O)N(C)c3ccccc31)C(C#N)=C(N)O2 (stereo unspecified) here?
A: 15.8 µM [falling, partial curve]

Q: With COc1ccc(-n2c(=O)c3ccccc3n(Cc3ccc(F)cc3Cl)c2=O)cc1OC as the molecule, how does the AC50 read?
A: 0.0398 µM [rising, full curve]

Q: Which AC50 does the source give for COc1ccc(NC(=O)C2CCN(C(=O)c3sc4nc[nH]c(=O)c4c3C)CC2)c(OC)c1 here?
A: 0.2 µM [rising, partial curve, poor fit]
